# Source: the supplement of paper PMC12819154, “High-throughput peptide-centric local stability assay extends protein–ligand identification to membrane proteins, tissues and bacteria” (Nature Structural & Molecular Biology, 2025)
# The list shows a part of the results. Most values lie at the level of the controls, where differences are scatter.
# Columns and labels:
# UniProt P0A9Q9 = target: T1, UniProt P0A9Q9; experiment: log2 fold change of tryptic peptide abundance, ligand vs vehicle (limited proteolysis) (log2 ratio); higher = more trypsin-susceptible (destabilized); details: peptide sequence: EEWKGQAETNK; peptide start residue: 241; ligand concentration: 10 uM; sample: E. coli crude lysate
# T1 sequence (whole entry): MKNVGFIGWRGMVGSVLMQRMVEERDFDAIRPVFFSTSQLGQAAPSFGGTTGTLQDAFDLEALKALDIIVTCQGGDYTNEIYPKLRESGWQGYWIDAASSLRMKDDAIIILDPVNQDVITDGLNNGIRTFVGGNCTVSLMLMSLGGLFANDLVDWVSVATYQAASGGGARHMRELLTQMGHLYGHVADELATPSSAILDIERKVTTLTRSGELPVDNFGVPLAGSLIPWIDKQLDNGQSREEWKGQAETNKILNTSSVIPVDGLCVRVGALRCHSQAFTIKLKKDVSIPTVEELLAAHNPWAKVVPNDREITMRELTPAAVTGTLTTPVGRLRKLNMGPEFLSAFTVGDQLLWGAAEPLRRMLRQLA
# UniProt P0AB87 = target: T2, UniProt P0AB87; experiment: as above; details: peptide sequence: KATLLQHHGLIACEVNLEK; peptide start residue: 148; ligand concentration: 10 uM; sample: E. coli crude lysate
# T2 sequence (whole entry): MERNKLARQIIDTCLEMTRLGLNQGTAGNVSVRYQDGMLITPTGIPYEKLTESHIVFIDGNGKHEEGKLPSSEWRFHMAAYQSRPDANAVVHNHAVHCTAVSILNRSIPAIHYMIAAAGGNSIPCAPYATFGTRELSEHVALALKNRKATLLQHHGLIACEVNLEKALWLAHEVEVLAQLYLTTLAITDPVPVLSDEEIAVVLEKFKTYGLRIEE
structure (smiles),measurement,setting,value
CC1(C)S[C@@H]2[C@H](NC(=O)[C@H](N)c3ccccc3)C(=O)N2[C@H]1C(=O)O [ampicillin],log2 fold change,UniProt P0A9Q9,-0.242
same,log2 fold change,UniProt P0AB87,-0.294
